According to patent US20140205681A1, “HYDROGEN-BOND SURROGATE PEPTIDES AND PEPTIDOMIMETICS FOR p53 REACTIVATION” (New York University, priority 2013, published 2014):
Results are given in words; binding and its absence hold for the method and conditions named. Binding seen in cells or lysates may run through a third protein. Some binding calls cover weakened binding; strength is not graded here.

Amino acid sequences for entries named in this document (tags omitted). A change or cut given only in a name is not applied to a line headed by its entry.
UniProt P03126: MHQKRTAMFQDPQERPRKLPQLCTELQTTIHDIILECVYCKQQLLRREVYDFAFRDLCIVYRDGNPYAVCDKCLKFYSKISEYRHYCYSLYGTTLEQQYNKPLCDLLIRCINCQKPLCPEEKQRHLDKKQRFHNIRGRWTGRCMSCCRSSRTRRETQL
UniProt Q09472: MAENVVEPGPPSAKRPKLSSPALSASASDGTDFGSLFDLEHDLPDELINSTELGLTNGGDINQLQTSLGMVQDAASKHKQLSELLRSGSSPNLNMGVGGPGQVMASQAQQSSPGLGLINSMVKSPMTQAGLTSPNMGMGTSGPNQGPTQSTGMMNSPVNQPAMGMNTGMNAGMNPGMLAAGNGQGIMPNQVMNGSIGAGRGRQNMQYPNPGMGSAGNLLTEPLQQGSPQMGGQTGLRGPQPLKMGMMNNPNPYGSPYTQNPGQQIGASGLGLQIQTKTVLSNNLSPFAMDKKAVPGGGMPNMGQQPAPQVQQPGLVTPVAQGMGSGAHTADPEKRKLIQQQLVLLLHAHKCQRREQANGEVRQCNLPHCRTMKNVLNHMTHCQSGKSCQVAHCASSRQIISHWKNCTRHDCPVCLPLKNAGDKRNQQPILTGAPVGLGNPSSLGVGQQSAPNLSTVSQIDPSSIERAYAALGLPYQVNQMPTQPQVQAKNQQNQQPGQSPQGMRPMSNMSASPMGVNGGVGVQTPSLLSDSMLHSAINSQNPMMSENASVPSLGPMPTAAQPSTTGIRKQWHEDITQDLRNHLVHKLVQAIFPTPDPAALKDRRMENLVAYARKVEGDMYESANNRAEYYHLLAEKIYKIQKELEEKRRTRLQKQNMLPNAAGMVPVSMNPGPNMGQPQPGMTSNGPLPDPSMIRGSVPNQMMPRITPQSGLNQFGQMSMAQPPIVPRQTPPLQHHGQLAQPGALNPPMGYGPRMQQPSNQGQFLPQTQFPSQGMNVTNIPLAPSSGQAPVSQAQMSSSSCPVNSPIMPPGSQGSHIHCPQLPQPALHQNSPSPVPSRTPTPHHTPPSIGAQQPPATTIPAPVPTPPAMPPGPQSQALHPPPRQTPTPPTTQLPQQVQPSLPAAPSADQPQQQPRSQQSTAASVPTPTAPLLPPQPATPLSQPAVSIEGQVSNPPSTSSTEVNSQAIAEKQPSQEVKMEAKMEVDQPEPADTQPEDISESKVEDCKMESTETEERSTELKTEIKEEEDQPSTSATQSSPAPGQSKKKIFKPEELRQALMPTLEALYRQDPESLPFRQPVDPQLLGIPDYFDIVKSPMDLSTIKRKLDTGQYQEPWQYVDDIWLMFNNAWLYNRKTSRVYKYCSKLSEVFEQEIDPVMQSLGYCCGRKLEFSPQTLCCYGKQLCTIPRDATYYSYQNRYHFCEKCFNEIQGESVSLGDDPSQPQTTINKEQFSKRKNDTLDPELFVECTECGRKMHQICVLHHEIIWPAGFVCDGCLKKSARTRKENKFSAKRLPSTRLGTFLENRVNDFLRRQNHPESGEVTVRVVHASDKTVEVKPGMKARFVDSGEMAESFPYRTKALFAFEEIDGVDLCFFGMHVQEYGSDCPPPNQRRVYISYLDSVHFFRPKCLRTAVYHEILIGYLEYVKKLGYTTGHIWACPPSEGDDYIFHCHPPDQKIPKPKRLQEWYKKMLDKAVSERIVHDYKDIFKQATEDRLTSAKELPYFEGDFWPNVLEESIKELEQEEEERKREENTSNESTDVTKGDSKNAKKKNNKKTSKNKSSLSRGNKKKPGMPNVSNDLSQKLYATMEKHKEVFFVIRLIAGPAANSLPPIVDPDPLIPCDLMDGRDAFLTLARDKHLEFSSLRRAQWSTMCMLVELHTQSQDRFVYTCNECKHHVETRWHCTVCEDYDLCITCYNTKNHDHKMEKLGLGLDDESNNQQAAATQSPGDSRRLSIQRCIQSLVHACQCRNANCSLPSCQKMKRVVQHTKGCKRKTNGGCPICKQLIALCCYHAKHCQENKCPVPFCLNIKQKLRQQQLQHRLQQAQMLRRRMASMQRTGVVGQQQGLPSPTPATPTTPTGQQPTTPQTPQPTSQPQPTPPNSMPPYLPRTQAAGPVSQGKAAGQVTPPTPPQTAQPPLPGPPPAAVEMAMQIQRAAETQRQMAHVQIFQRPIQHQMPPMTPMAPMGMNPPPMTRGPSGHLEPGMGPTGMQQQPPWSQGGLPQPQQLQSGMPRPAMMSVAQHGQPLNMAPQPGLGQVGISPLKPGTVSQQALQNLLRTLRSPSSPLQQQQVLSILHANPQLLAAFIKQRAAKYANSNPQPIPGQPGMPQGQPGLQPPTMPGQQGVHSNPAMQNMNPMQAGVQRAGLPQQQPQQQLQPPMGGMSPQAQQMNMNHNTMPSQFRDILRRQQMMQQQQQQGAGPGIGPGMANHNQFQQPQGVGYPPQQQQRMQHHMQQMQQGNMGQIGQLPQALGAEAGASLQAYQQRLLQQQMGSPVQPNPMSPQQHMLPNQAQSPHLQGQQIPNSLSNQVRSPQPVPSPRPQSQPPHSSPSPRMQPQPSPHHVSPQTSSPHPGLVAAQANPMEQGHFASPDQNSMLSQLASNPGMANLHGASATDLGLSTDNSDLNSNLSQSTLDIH

Key:
[1] = target: HPV16 E6 (human papillomavirus type 16 (HPV16)) (UniProt P03126); experiment: co-immunoprecipitation (anti-E6 IP, anti-V5 blot) from lysates of UMSCC47/CH1 and SCC90/CH1 cells
p300 [2] = target: p300 (UniProt Q09472); experiment: co-immunoprecipitation (anti-p300 IP, anti-E6 blot) from UMSCC47 lysates
p300 [3] = target: p300 (UniProt Q09472); experiment: co-immunoprecipitation with anti-E6 or anti-p300 antibody, immunoblot with anti-V5, anti-E6 or anti-p300

“exogenous CH1 domain of p300 (pcDNA3.1/CH1) (from UniProt Q09472 332-417)” was tested, and the binding [1] was “binds”.

In the case of HPV16 E6 (from UniProt P03126 1-158), the binding (p300 [2]) was “binds” and the binding (p300 [3]) was “binds”.
